Data as given in publication doi:10.1101/2021.01.08.425619.
Results are given in words; binding and its absence hold for the method and conditions named. In cells and extracts the contact can be indirect. Here binding means that the protein was enriched with, or labelled near, the bait; the list need not be complete. For some of these results: A no says only that the protein was not detected with the bait. Blank lines part the entries; values can stand above or below the substance they belong to.

Amino acid sequences for entries named in this document (tags omitted). A change or cut given only in a name is not applied to a line headed by its entry.
UniProt Q24117: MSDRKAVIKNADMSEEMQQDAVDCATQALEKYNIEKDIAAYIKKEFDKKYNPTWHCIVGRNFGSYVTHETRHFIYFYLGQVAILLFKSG
UniProt Q32KD2: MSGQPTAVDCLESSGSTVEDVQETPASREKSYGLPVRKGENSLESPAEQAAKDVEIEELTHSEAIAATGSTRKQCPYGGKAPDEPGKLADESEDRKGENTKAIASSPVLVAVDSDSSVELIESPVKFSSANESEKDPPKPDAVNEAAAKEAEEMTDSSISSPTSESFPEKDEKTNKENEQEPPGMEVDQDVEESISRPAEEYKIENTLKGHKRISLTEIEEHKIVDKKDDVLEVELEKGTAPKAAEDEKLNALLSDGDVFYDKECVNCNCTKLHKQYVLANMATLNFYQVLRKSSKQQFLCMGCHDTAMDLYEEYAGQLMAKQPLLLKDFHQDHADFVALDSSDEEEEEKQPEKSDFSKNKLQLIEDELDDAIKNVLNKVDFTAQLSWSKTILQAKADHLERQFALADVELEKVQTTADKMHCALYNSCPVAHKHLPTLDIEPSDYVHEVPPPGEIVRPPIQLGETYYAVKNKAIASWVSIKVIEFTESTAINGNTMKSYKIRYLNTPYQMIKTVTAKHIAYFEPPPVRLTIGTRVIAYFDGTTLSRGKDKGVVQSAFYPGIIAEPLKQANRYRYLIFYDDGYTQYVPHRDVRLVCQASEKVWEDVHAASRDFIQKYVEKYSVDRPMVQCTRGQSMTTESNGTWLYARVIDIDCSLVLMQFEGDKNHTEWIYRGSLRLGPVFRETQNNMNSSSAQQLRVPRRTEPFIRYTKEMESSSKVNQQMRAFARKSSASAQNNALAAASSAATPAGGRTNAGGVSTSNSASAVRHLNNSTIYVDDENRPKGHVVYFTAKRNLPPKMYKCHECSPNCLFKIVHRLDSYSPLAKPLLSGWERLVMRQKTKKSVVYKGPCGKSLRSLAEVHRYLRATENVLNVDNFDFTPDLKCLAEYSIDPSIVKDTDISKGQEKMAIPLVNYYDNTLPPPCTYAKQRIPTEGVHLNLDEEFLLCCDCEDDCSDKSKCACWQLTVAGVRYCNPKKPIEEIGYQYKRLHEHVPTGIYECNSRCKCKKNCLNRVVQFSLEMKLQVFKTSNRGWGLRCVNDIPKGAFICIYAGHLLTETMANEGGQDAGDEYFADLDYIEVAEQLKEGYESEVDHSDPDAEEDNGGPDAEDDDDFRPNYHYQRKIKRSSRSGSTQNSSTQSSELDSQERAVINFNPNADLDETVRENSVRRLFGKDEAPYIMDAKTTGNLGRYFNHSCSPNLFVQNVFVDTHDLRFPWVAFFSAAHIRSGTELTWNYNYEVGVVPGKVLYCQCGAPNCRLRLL
UniProt P63168: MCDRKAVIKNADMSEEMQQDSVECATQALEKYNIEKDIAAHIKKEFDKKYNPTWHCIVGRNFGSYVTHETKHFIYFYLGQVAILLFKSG
UniProt Q5LJQ3: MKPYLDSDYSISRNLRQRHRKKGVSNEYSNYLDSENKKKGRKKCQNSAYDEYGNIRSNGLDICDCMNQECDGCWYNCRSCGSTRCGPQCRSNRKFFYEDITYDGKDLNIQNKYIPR
UniProt Q9VV73: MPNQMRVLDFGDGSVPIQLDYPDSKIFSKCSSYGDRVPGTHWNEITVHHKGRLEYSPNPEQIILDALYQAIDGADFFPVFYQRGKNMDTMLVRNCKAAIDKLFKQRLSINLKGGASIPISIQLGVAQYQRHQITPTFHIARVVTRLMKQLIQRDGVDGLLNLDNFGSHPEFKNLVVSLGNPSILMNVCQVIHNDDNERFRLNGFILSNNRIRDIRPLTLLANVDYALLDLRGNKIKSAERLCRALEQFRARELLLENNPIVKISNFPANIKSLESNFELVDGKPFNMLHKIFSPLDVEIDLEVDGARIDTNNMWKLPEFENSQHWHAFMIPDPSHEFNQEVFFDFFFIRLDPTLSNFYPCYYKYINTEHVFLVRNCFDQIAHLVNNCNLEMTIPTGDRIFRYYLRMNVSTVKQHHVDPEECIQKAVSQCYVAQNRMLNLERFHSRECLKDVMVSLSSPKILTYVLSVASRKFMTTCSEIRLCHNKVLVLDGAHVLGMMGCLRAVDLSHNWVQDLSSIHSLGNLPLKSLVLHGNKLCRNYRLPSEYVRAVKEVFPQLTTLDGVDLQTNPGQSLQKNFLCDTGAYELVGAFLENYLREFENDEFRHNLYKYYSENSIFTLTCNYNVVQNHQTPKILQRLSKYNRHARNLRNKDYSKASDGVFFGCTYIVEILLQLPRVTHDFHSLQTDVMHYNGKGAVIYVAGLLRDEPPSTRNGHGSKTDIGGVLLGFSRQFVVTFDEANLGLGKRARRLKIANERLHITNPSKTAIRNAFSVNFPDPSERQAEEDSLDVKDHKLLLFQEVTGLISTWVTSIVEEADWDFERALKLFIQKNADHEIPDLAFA
UniProt A0A0B4LF38: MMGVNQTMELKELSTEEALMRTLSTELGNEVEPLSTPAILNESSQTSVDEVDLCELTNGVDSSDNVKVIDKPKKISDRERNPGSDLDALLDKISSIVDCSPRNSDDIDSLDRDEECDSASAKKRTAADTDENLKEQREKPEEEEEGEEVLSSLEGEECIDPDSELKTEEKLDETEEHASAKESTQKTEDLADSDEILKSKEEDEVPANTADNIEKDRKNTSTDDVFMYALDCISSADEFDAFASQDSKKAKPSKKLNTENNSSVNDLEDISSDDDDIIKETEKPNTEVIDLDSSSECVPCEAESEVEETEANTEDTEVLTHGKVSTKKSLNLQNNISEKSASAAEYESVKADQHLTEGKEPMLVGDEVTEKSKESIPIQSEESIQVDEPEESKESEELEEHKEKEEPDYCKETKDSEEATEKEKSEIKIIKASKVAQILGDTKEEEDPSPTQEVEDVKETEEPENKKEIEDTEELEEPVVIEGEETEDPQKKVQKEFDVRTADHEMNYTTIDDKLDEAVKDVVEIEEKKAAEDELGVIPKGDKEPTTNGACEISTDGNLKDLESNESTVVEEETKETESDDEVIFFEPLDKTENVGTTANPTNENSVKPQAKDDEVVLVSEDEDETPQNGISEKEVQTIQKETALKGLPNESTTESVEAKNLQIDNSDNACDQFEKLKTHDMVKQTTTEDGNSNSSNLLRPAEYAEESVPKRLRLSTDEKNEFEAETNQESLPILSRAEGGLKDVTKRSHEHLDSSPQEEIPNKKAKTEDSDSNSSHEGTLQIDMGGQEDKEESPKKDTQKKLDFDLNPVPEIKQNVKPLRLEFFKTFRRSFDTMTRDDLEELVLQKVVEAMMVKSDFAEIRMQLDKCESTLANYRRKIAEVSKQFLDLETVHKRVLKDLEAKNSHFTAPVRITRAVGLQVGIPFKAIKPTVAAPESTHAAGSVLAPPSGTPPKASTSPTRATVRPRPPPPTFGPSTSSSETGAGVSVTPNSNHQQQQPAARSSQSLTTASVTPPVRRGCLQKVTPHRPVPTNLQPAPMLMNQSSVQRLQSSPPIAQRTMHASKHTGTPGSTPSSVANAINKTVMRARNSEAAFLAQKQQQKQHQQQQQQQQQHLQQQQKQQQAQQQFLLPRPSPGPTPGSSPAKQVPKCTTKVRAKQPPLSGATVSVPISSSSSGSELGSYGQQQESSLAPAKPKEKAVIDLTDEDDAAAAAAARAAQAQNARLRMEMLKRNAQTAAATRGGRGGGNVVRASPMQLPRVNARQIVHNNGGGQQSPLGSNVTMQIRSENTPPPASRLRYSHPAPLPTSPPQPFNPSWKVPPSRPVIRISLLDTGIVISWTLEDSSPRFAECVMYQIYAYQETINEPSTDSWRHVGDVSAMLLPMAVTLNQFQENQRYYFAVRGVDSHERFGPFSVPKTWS
UniProt Q9VCU6: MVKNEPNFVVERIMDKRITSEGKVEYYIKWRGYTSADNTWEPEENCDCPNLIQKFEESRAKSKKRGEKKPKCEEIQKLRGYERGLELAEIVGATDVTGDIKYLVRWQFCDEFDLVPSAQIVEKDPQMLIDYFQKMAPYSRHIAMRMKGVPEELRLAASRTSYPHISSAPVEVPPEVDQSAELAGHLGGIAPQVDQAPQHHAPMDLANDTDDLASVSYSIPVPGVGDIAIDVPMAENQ
UniProt A2A791: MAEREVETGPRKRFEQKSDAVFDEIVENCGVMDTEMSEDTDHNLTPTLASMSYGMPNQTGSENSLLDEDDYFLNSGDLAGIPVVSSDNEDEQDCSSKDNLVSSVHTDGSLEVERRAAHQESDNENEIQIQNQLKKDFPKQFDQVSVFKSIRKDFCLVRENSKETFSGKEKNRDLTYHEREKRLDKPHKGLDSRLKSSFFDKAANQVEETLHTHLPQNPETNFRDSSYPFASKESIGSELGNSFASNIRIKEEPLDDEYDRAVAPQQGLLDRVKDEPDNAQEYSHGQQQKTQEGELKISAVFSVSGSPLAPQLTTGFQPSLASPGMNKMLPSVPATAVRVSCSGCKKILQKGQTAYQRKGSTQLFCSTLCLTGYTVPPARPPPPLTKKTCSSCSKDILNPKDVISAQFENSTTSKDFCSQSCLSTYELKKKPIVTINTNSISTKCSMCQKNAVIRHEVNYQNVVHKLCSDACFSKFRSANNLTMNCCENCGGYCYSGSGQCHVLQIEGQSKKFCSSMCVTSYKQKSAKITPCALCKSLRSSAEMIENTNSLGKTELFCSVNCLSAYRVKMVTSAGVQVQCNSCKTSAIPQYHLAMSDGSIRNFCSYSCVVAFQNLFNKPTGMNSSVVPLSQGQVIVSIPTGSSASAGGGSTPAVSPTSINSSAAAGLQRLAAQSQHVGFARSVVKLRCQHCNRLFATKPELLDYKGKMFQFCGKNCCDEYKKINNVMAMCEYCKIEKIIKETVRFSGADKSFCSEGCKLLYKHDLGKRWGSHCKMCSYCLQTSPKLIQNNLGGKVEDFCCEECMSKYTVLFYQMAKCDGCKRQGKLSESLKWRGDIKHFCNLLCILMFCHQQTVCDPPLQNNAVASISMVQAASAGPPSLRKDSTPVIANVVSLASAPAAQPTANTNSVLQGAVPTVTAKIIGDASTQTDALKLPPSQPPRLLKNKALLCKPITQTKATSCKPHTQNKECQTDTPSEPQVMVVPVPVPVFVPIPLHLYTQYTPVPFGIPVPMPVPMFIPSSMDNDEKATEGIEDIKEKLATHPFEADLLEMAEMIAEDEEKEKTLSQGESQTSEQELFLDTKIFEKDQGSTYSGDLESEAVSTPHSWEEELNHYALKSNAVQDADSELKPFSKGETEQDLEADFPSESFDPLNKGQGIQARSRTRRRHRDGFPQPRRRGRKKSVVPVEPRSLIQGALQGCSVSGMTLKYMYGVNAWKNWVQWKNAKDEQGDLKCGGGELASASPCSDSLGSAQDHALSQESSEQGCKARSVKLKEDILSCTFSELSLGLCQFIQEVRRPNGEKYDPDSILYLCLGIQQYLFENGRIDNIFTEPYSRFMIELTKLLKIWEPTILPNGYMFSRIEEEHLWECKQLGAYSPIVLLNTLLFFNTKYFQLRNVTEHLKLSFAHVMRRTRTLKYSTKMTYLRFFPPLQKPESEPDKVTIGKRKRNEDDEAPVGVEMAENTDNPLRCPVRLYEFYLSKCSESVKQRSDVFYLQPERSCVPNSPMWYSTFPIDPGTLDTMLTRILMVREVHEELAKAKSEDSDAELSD

What was measured:
Test in all cases: affinity purification with mass spectrometry
[1] = target: FLAG-GFP tagged LC8 (Drosophila) (UniProt Q24117)
[2] = target: FLAG-GFP tagged Eggless (Drosophila (endogenous locus in OSCs)) (UniProt Q32KD2)
[3] = target: Mouse LC8/Dynll1, endogenously tagged (mouse) (UniProt P63168)

Substance: CG14464/ARLE-14 (from UniProt Q5LJQ3)
binding [1]: binds

Substance: Cutup, the 8 kDa Dynein Light Chain 8 (LC8) ortholog of Drosophila, endogenous (from UniProt Q24117 1-89)
binding [2]: binds

Substance: Nxf2, endogenous (from UniProt Q9VV73 1-841)
binding [2]: no binding

Substance: Robl (from UniProt A1ZAT3)
binding [1]: binds

Substance: Windei/ATF7IP (from UniProt A0A0B4LF38)
binding [1]: binds

The remaining lines, values ahead:

binding [1]: binds
Substance: HP1c (from UniProt Q9VCU6)

binding [3]: binds
Substance: Zmym4 (from UniProt A2A791 1-1549)
